# According to patent US20210371518A1 (University of Texas, published 2021):
# By UniProt entry, the sequences of proteins in these tests, tags left out. Where a name states a change or a piece, a line headed by the entry shows the natural chain unless it says otherwise. Residues count along the entry.
# UniProt Q8NHJ6: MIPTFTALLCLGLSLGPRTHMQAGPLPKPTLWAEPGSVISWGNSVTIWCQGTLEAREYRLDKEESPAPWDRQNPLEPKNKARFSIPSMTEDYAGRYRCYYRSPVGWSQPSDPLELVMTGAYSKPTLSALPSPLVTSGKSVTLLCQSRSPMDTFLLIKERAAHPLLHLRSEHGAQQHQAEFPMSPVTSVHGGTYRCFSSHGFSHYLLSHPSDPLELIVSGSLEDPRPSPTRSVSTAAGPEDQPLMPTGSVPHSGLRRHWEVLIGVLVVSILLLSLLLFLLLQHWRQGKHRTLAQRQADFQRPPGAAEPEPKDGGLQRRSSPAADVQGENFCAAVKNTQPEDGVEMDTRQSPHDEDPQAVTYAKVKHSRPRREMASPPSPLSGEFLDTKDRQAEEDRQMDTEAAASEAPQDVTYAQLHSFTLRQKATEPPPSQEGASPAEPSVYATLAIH
# human LILRB4 protein (flow cytometry): residues 22-448 of Q8NHJ6
# human LILRB4 extracellular domain (ECD) recombinant protein: residues 22-259 of Q8NHJ6
# Results are given in words; binding and its absence hold for the method and conditions named. Some results given as binding are weak or reduced against the parent protein; the word gives no strength.
# Key:
# [1] = molecular target: T1, human LILRB4 D1 recombinant protein (human, UniProt Q8NHJ6 24-119, limits assumed); test: ELISA, coated LILRB4 D1
# T1 construct: domain: D1 domain; also called LILRB4 D1 domain (D1); Ig domain-1
# [2] = molecular target: T1, human LILRB4 D1 recombinant protein; test: ELISA, LILRB4 D1 recombinant protein coated, anti-rabbit IgG F(ab)2-HRP
# Description: FIGS. 23A-23B. FIG. 23A is a schematic of the LILRB4 extracellular domain (ECD). […] FIG. 23B illustrates the determination of exemplary LILRB4 mAbs binding to Ig domain-1 (D1 domain) of human LILRB4. X axis indicates the antibody concentrations and Y-axis is binding signals in OD (450 nm). LILRB4 D1 recombinant protein was coated on high absorption 96-well plates. Serial diluted (3-fold) LILRB4 mAb was added to the coated/blocked plates and detected using goat anti-rabbit IgG F(ab)₂-conjugated HRP as secondary antibody.
# [3] = molecular target: human LILRB4 extracellular domain (ECD) recombinant protein (human) (UniProt Q8NHJ6); test: ELISA, coated LILRB4 ECD
# [4] = molecular target: human LILRB4 protein (flow cytometry) (human) (UniProt Q8NHJ6); test: flow cytometry on human LILRB4, MFI
Binder,binding [1],binding [2],binding [3],binding [4]
"B4-86 (antibody, V domains shown, Rabbit monoclonal antibody) VH: EQSVESGGDLVKPEGSLTLTCTVSGFSFSSSYWICWVRQAPGKGLEWIGCIGTGSGSTYYGSWAKGRFTISKTSSTTVTLQMTSLTAADTATYFCVRGAGYSSYRLWGPGTLVTISS VL: ELDMTQTPASVSEPVGGTVTIKCQASESVSNWLAWYQQKPGQRPKLLIYGASTLESGVPSRFSGSGSGTEFTLTISNLECADAATYYCQQGYDWDNIDNAFGGGTEVVVK",binds,binds,–,–
"B4-87 (antibody, V domains shown, Rabbit monoclonal antibody) VH: QSVKESGGDLVKPGASLTLTCTASGFSFISTYWICWVRQAPGKGLELIACIYTGGSGSTYYASWAKGRFTISKTSSTTVTLQLNSLTAADTATYFCARALYVDYVDYDYIDLWGPGTLVTVSS VL: ELDLTQTPASVEAAVGGTVTIKCQASENIGSRLAWYQQKPGQPPKLLIYAASNLASGVSSRFKGSRSGTQFTLTISDLECADAAIYYCQCSYYGSTYVFGFGGGTEVEIK",binds,binds,–,–
"B4-15-1 (antibody, V domains shown, Rabbit monoclonal antibody against human LILRB4 ECD) VH: SGGLEESGGRLVTPGTPLTLTCTASGFTINSAHMSWVRQAPGKGLEWIGFSTTGGPSYYANWAKGRFTISRTSTTVDLEITSPTIEDTATYFCARDGPGNNIDMDLWGQGTLVTITS VL: ELDLTQTPASVSEPVGGTVTIKCQASQNRGGSIAWYQQKPGQPPKLLIYSASTLASGVPSRFSGSGYGTEFTLTISGVQCADAGTYYCQSTIYSISDIGAFGGGTEVVVK",binds,binds,binds,–
"h193 antibody No. 19 (h193-H3 / h193-K1) (antibody, V domains shown) VH: EVQLVESGGGLVQPGGSLRLSCAASGFSLSSSYWISWVRQAPGKGLEWIGSIDSGSVGITYYATWAKGRFTISRDNSKNTLYLQMNSLRAEDTAVYYCARHGDNWALDLWGQGTLVTVSS VL: DIQMTQSPSTLSASVGDRVTITCQASQSINSWLAWYQQKPGKAPKLLIYKASTLASGVPSRFSGSGSGTEFTLTISSLQPDDFATYYCQHGYIRGDLDNVFGGGTKVEIK",–,–,–,binds
"h193 antibody No. 20 (h193-H3 / h193-K2) (antibody, V domains shown) VH: EVQLVESGGGLVQPGGSLRLSCAASGFSLSSSYWISWVRQAPGKGLEWIGSIDSGSVGITYYATWAKGRFTISRDNSKNTLYLQMNSLRAEDTAVYYCARHGDNWALDLWGQGTLVTVSS VL: DLVMTQSPSTLSASVGDRVTITCQASQSINSWLAWYQQKPGKPPKLLIYKASTLASGVSSRFSGSGSGTEFTLTISSLQPDDVATYYCQHGYIRGDLDNVFGGGTKVEIK",–,–,–,binds
"h193 antibody No. 23 (h193-H4 / h193-K1) (antibody, V domains shown) VH: EVQLVESGGGLVQPGGSLRLSCAASGFSLSSSYWISWVRQAPGKGLEWVSSIDSGSVGITYYATWAKGRFTISRDNSKNTLYLQMNSLRAEDTAVYYCARHGDNWALDLWGQGTLVTVSS VL: DIQMTQSPSTLSASVGDRVTITCQASQSINSWLAWYQQKPGKAPKLLIYKASTLASGVPSRFSGSGSGTEFTLTISSLQPDDFATYYCQHGYIRGDLDNVFGGGTKVEIK",–,–,–,binds
"h193 antibody No. 24 (h193-H4 / h193-K2) (antibody, V domains shown) VH: EVQLVESGGGLVQPGGSLRLSCAASGFSLSSSYWISWVRQAPGKGLEWVSSIDSGSVGITYYATWAKGRFTISRDNSKNTLYLQMNSLRAEDTAVYYCARHGDNWALDLWGQGTLVTVSS VL: DLVMTQSPSTLSASVGDRVTITCQASQSINSWLAWYQQKPGKPPKLLIYKASTLASGVSSRFSGSGSGTEFTLTISSLQPDDVATYYCQHGYIRGDLDNVFGGGTKVEIK",–,–,–,binds
"h193 antibody No. 27 (h193-H5 / h193-K1) (antibody, V domains shown) VH: EVQLVESGGGLVQPGGSLRLSCAASGFSLSSSYWISWVRQAPGKGLEWIGVIDSGSVGITYYATWAKGRFTISRDNSKNTLYLQMNSLRAEDTAVYYCARHGDNWALDLWGQGTLVTVSS VL: DIQMTQSPSTLSASVGDRVTITCQASQSINSWLAWYQQKPGKAPKLLIYKASTLASGVPSRFSGSGSGTEFTLTISSLQPDDFATYYCQHGYIRGDLDNVFGGGTKVEIK",–,–,–,binds
"h193 antibody No. 31 (h193-H6 / h193-K1) (antibody, V domains shown) VH: EVQLVESGGGLVQPGGSLRLSCAASGFSLSSSYWISWVRQAPGKGLEWIGSIDSGSVGITYYATSAKGRFTISRDNSKNTLYLQMNSLRAEDTAVYYCARHGDNWALDLWGQGTLVTVSS VL: DIQMTQSPSTLSASVGDRVTITCQASQSINSWLAWYQQKPGKAPKLLIYKASTLASGVPSRFSGSGSGTEFTLTISSLQPDDFATYYCQHGYIRGDLDNVFGGGTKVEIK",–,–,–,binds
"h193 antibody No. 32 (h193-H6 / h193-K2) (antibody, V domains shown) VH: EVQLVESGGGLVQPGGSLRLSCAASGFSLSSSYWISWVRQAPGKGLEWIGSIDSGSVGITYYATSAKGRFTISRDNSKNTLYLQMNSLRAEDTAVYYCARHGDNWALDLWGQGTLVTVSS VL: DLVMTQSPSTLSASVGDRVTITCQASQSINSWLAWYQQKPGKPPKLLIYKASTLASGVSSRFSGSGSGTEFTLTISSLQPDDVATYYCQHGYIRGDLDNVFGGGTKVEIK",–,–,–,binds
"h193 antibody No. 33 (h193-H6 / h193-K3) (antibody, V domains shown) VH: EVQLVESGGGLVQPGGSLRLSCAASGFSLSSSYWISWVRQAPGKGLEWIGSIDSGSVGITYYATSAKGRFTISRDNSKNTLYLQMNSLRAEDTAVYYCARHGDNWALDLWGQGTLVTVSS VL: DIQMTQSPSTLSASVGDRVTITCRASQSINSWLAWYQQKPGKAPKLLIYKASTLASGVPSRFSGSGSGTEFTLTISSLQPDDFATYYCQHGYIRGDLDNVFGGGTKVEIK",–,–,–,binds
"h193 antibody No. 35 (h193-H7 / h193-K1) (antibody, V domains shown) VH: EVQLVESGGGLVQPGGSLRLSCAASGFSLSSSYWISWVRQAPGKGLEWIGSIDSGSVGITYYATWVKGRFTISRDNSKNTLYLQMNSLRAEDTAVYYCARHGDNWALDLWGQGTLVTVSS VL: DIQMTQSPSTLSASVGDRVTITCQASQSINSWLAWYQQKPGKAPKLLIYKASTLASGVPSRFSGSGSGTEFTLTISSLQPDDFATYYCQHGYIRGDLDNVFGGGTKVEIK",–,–,–,binds
"h193 antibody No. 36 (h193-H7 / h193-K2) (antibody, V domains shown) VH: EVQLVESGGGLVQPGGSLRLSCAASGFSLSSSYWISWVRQAPGKGLEWIGSIDSGSVGITYYATWVKGRFTISRDNSKNTLYLQMNSLRAEDTAVYYCARHGDNWALDLWGQGTLVTVSS VL: DLVMTQSPSTLSASVGDRVTITCQASQSINSWLAWYQQKPGKPPKLLIYKASTLASGVSSRFSGSGSGTEFTLTISSLQPDDVATYYCQHGYIRGDLDNVFGGGTKVEIK",–,–,–,binds
"h193 antibody No. 37 (h193-H7 / h193-K3) (antibody, V domains shown) VH: EVQLVESGGGLVQPGGSLRLSCAASGFSLSSSYWISWVRQAPGKGLEWIGSIDSGSVGITYYATWVKGRFTISRDNSKNTLYLQMNSLRAEDTAVYYCARHGDNWALDLWGQGTLVTVSS VL: DIQMTQSPSTLSASVGDRVTITCRASQSINSWLAWYQQKPGKAPKLLIYKASTLASGVPSRFSGSGSGTEFTLTISSLQPDDFATYYCQHGYIRGDLDNVFGGGTKVEIK",–,–,–,binds
"B4-116-1 (antibody, V domains shown, Rabbit monoclonal antibody) VH: EQSVEESGGDLVKPGASLTLTCAASGFSFSSTYCMCWVRQAPGKGLEWIACIHGVSTNNRWYASWPKGRFTISKTSSTTVTLQMTSLTAADTATYFCARSDTDYEWGLSLWGPGTLVTISS VL: ELDLTQTPASVSEPVGGTVTIKCQASESIGSRLAWYQQKPGQRPKLLIYKASTLASGVPSRFSGSGSGTEFTLTVSDLECADVAAYYCQCAGQSSTWAFGGGTEVEIK",binds,binds,–,–
"B4-116-2 (antibody, V domains shown, Rabbit monoclonal antibody) VH: EQSVEESGGDLVKPGASLTLTCAASGFSFSSTYCMCWVRQAPGKGLEWIACIHGVSTNNRWYASWPKGRFTISKTSSTTVTLQMTSLTAADTATYFCARSDTDYEWGLSLWGPGTLVTISS VL: ELVMTQTPASVEAVVGGTVTIKCQASESIGSRLAWYQQKPGQRPKLLIYKASTLASGVPSRFSGSGSGTEFTLTVSDLECADVAAYYCQCAGQSSTWAFGGGTEVVVK",binds,binds,–,–
"B4-49 (antibody, V domains shown, Rabbit monoclonal antibody) VH: QSLEESGGDLVKPGASLTLTCTASGFDFSSSGWICWVRQAPGKGLELIACIYSGRSGSTYYASWAKGRVTISKTSSTTVTLQMTSLTAADTATYFCARALYVDYVDYDYIDLWGPGTLVTVSS VL: ELDLTQTPASVEAAVGGTVTIKCQASQSTGIRLAWYQQKPGQPPKLLMYATSNLASGVSSRFKGSGSGTEFTLTISDLECADAATYYCQYSYYGSSYVFDFGGGTEVEIK",binds,binds,–,–
"B4-72-2 (antibody, V domains shown, Rabbit monoclonal antibody) VH: EQSVEESGGRLVTPGTPLTLTCTASGFSLSSYYMSWVRQAPGRGLEYIGVINTGGSAVYATWTKGRFTISRTSTTVDLKMTGLTTEDTATYFCARGWSRGDLWGQGTLVTISS VL: ELDMTQTPSPVSAAVGGTVTIKCQSSQNVYDDDTLSWYQQKPGQPPKLLIYDASKLASGVPDRFSGSGSGTQFTLTISGVQCDDAATYYCLGVFHDGINNAFGGGTEVEIK",binds,binds,–,–
